The record followed here is PMC8228889.

Amino acid sequences for entries named in this document (tags omitted).
UniProt Q86U86: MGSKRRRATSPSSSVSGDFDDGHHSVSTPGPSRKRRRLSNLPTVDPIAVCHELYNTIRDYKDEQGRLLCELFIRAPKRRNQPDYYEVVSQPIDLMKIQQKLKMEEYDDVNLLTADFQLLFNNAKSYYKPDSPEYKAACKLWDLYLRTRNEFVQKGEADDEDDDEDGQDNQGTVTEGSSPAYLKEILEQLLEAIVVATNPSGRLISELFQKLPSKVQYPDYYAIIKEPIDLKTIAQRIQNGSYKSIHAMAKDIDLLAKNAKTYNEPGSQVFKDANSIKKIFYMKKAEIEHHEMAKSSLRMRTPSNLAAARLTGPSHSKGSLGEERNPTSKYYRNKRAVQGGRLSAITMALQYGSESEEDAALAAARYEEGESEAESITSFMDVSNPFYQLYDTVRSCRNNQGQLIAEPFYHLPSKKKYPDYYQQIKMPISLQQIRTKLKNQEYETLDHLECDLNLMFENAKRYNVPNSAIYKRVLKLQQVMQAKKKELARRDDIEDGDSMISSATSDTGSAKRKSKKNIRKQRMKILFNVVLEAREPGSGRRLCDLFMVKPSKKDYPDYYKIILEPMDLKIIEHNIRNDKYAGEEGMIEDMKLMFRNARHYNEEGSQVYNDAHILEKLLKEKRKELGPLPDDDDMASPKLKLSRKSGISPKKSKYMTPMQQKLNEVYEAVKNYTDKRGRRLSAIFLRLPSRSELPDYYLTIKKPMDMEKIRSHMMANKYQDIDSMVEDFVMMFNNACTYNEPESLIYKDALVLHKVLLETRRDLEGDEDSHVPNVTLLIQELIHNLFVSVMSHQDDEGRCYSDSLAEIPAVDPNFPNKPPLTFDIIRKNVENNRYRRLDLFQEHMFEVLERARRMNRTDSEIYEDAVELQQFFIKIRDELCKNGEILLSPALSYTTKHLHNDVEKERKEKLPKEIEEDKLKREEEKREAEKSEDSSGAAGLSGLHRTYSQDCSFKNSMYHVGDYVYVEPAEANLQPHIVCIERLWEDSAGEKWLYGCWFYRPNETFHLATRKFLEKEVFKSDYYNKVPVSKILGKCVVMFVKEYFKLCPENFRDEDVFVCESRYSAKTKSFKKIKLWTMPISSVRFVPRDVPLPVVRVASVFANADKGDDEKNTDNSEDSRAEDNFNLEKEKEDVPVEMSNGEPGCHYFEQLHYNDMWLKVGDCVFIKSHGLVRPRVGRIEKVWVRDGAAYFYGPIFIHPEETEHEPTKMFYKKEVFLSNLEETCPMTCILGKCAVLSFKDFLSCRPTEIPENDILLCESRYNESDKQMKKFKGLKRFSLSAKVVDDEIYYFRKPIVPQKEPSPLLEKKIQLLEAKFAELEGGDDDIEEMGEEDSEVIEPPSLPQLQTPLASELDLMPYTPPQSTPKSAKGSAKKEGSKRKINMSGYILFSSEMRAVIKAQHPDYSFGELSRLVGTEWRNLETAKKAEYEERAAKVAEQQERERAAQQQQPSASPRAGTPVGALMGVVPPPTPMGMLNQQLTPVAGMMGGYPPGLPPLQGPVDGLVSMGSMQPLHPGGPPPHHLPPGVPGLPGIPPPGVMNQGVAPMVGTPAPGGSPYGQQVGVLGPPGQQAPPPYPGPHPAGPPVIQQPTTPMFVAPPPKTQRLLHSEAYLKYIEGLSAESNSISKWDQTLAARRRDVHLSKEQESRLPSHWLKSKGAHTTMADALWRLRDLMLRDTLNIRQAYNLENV

What all share (assay): pull-down; recombinant His-tagged bait on Ni-NTA beads incubated with 1 mg total HeLa cell lysate overnight at 4 °C, washed (200 mM NaCl, 0.1% Tween-20), Western blot; HMG domain also with or without 50 µg RNAse A; only the target purified
The target in test [1] is T1, 6xHis-tagged YTHDF2 (1–384) (UniProt Q9Y5A9).
T1 sequence: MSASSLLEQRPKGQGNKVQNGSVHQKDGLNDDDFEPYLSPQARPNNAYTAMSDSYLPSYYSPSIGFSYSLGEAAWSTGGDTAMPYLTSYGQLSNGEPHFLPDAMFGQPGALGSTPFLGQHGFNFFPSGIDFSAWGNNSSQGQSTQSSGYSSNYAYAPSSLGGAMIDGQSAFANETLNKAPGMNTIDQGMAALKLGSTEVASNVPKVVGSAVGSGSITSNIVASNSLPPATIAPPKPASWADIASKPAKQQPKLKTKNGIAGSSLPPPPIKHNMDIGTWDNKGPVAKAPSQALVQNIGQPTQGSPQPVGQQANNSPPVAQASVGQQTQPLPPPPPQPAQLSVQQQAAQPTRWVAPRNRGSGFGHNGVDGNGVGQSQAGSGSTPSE

The target of test [2] is T2, 6xHis-tagged YTHDF2 (1–579) (UniProt Q9Y5A9).
T2 sequence: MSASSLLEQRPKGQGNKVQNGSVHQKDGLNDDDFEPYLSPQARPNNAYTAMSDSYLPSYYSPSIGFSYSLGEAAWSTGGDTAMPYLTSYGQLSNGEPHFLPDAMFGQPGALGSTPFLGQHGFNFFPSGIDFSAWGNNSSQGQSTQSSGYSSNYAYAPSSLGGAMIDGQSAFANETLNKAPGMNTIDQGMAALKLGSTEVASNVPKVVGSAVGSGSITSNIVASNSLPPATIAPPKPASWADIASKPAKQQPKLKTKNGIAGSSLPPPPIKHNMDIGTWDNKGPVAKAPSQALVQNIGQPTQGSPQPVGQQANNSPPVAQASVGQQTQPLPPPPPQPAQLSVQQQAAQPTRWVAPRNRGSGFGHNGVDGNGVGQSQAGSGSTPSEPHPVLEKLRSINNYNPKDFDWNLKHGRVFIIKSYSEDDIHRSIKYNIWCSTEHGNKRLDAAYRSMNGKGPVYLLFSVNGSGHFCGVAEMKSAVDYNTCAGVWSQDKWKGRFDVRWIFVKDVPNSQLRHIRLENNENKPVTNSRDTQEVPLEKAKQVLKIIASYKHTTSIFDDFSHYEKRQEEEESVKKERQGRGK

Test [3] addresses T3, 6xHis-tagged YTHDF2 (384–579) (UniProt Q9Y5A9).
T3 sequence: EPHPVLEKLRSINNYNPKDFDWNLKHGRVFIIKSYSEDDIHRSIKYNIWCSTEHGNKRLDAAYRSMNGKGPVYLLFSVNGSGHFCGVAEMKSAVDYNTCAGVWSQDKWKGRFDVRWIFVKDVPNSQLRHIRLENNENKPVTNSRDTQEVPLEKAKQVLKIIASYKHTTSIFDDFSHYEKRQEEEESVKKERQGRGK

No constants are given. Whether binding was seen depends on the method and setting. Binding seen in cells or lysates may run through a third protein. Some results given as binding are weak or reduced against the parent protein; the word gives no strength. Where a sequence is shown, tags or fusion partners need not be part of it.

“PBRM1 (protein polybromo-1) (from UniProt Q86U86 1-1689)”: the figures for the binding entry in test [1], in test [2] and in test [3] were “no binding”, “binds” and “binds”, respectively.
